# Primary screen of a compound library

Protein sequences, listed by entry. Tags and fused reporters are not part of them. Residues count along the entry.
UniProt P9WFT3, whole entry: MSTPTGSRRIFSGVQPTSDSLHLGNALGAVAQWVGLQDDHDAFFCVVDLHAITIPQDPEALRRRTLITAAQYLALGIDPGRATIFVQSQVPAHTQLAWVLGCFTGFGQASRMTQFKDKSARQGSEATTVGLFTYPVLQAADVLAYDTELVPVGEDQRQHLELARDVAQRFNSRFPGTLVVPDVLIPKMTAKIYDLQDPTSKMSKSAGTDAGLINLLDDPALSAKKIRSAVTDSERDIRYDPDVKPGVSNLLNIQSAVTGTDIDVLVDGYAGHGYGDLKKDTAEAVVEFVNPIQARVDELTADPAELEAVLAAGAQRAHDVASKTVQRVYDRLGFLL
UniProt Q8IDJ8, 1-583: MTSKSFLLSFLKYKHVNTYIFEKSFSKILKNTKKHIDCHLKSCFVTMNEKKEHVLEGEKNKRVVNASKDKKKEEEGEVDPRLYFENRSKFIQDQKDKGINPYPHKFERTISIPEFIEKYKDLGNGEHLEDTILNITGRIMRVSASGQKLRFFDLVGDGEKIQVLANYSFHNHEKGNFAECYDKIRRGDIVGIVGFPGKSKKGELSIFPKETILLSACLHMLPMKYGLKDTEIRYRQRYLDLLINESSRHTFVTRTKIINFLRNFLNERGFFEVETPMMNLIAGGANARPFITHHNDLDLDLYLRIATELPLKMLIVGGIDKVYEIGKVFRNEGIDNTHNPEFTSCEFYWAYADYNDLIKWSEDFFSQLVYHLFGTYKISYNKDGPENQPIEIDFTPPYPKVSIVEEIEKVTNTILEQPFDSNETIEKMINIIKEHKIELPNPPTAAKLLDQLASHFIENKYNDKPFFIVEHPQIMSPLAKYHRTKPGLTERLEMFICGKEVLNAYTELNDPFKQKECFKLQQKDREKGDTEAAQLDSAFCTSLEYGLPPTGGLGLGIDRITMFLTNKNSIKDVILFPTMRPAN
UniProt P9WNZ1, whole entry: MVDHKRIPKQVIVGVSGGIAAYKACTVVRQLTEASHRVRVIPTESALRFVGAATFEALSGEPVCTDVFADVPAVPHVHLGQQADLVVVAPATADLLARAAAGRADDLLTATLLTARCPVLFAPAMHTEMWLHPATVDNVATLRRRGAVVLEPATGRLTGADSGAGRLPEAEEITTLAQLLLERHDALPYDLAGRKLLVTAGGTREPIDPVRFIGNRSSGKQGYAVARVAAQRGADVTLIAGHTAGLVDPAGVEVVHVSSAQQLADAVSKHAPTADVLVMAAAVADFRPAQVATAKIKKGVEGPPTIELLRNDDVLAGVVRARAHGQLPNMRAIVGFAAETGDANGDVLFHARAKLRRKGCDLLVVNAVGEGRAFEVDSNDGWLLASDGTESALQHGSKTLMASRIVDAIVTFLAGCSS
UniProt P9WPC5, whole entry: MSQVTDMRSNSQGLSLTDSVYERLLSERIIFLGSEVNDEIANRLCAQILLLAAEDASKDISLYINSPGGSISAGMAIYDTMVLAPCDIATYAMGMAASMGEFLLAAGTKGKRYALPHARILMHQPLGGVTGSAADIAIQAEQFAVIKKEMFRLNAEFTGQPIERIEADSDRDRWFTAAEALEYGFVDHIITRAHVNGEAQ
UniProt P9WPC3, whole entry partner: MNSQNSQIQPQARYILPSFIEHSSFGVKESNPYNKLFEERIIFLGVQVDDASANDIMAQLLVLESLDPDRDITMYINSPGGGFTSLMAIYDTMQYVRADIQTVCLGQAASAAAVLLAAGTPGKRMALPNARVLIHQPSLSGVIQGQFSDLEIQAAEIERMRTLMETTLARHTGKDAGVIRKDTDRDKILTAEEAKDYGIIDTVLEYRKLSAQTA
UniProt Q4DA54, 1-478: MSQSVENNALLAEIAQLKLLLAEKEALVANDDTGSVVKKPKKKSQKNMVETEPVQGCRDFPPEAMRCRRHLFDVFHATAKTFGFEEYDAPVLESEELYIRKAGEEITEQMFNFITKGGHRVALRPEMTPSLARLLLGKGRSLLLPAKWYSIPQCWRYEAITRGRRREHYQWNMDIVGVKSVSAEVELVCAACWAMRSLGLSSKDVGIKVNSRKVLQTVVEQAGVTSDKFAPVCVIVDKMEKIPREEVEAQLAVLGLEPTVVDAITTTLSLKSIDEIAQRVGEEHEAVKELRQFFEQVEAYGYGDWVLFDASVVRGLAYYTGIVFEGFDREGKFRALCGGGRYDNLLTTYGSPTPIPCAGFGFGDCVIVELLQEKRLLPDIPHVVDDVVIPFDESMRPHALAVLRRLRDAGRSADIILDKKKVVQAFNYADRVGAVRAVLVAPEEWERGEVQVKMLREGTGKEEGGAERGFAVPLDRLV

From ChEMBL document CHEMBL3988442, “University of Dundee, Small-Polar-MMV Screening Library” (2021).

Results are given as percent effect.
The record does not define 0% and 100%; most values in the screen are far below 50% and negative numbers occur (in some assays of this library far below -100).
This is an unselected part of the compounds tested.
A dash means the value is not listed here; it may have been measured.

A: 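Tryptophan-tRNA ligase, Mycobacterium tuberculosis (UniProt P9WFT3). Enzyme assay of tryptophanyl-tRNA synthetase; the read-out is not stated. Compounds at 10 µM. Higher most likely means stronger inhibition; the record gives no direction and few retests gave an IC50. Size under these conditions: about 65,000 compounds, about 64 of them at 50% or above in at least one test.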
B: 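Enzyme assay of the cytosolic lysyl-tRNA synthetase in 384-well plates, read by luminescence. Target: Lysine-tRNA ligase, Plasmodium falciparum 3D7 (UniProt Q8IDJ8). Concentration: 30 µM. Higher reads as stronger inhibition, judged from the few compounds that gave an IC50. Of about 69,000 compounds tested this way, about 49 (0.071%) reached 50% or more in at least one test.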
C: 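Coenzyme A biosynthesis protein CoaBC, Mycobacterium tuberculosis (UniProt P9WNZ1). Enzyme assay of CoaBC with a phosphate dye (Biomol Green) read at 650 nm. Compounds at 30 µM. Direction is inferred from only a few compounds that gave an IC50; most scored high, so higher reads as stronger inhibition. Most strong results did not repeat in a second test. Of about 67,000 compounds tested this way, about 40 (0.06%) reached 50% or more in at least one test.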
D: 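ClpP1P2, Mycobacterium tuberculosis (UniProt P9WPC5 and UniProt P9WPC3). Protease assay of ClpP1P2, read by the AMC dye that it sets free. Compounds at 50 µM. Direction is inferred from only a few compounds that gave an IC50; most scored high, so higher reads as stronger inhibition. Most other retested compounds had strongly negative values. Of about 69,000 compounds tested this way, about 10 (0.015%) reached 50% or more in at least one test.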
E: 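Histidine-tRNA ligase, Trypanosoma cruzi CL Brener (UniProt Q4DA54). Enzyme assay of histidyl-tRNA synthetase; the read-out is not stated. Tested at 30 µM. Higher reads as stronger inhibition (inferred: compounds with an IC50 in retests scored well above the rest). Size under these conditions: about 69,000 compounds, about 31 of them at 50% or above in at least one test.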

Compound	A	B	C	D	E
c1cnn(CCC2CCN(Cc3ccc4[nH]ccc4c3)CC2)c1	0.7971	7.685	4.222	-4.077	8.543
COCc1nc(C2CC2)nn1-c1cc(Cl)ccc1OC	-0.9031	4.157	1.106	-2.791	14.29
Cc1cc(C)n(CC2CN(CC(=O)NC(C3CC3)C3CC3)CCO2)n1 (stereo not given)	-0.2921	-0.842	4	5.402	2.299
CC(=O)N(Cc1ncc(C)o1)C1CCN(Cc2cccnc2)C1 (stereo not given)	0.06536	4.226	2.29	1.206	-22.89
CCCC(C)(C)NC(=O)CCN1CCOC1=O	1.256	-2.281	1.442	-3.003	2.532
OCCCN1CCc2[nH]nc(C(c3ccccc3)c3ccccc3)c2C1	-0.1638	3.728	-0.4577	-1.593	6.077
CC(=O)N1CCC(=O)N(C2CCCC2)Cc2ccccc21	-	1.912	0.2421	20.81	-2.247
CC(c1ccncn1)N(C)Cc1cc2cc3c(cc2[nH]c1=O)OCO3 (stereo not given)	3.221	1.937	8.874	-79.19	0.8
O=C(NCc1cn2cccnc2n1)C1CC(=O)N(Cc2cccnc2)C1 (stereo not given)	-3.473	0.8661	0.8696	-33.18	2.899
O=C(NCc1ccccc1F)N1CCCCC1C1OCCO1 (stereo not given)	1.866	-0.3852	0.9223	-5.468	8
Cc1cc(NC(=O)NCCc2cscn2)nn1C	-1.469	4.521	1.33	-7.409	7.143
Cc1nc(CN2CCN(C(=O)c3cc(C4CC4)on3)CC2)cs1	-3.518	9.196	4.359	2.926	-4.151
CC(C)COC(=O)N1CC(=O)N(Cc2ccc(Cl)cc2)CC(O)C1 (stereo not given)	-	3.706	4.843	3.13	5.618
Cc1n[nH]c(C)c1CN1CCC(c2cc(C(C)C)n[nH]2)CC1	-4.891	1.272	1.099	4.494	8.247
N#CC1=C(N)Nn2c(nnc2-c2ccccc2F)S1	-0.7498	13.18	4.557	-18.17	7.317
CCOCC1CN(C(=O)N(C)C)Cc2nnn(CC3CC3)c21 (stereo not given)	0.6783	5.201	-	-0.7798	8.589
CCCNC(=O)NCc1ccccc1NS(=O)(=O)c1ccccc1	0.5623	4.632	2.82	-21.53	1.064
Cc1nccn1CC(=O)N1CC(Cc2nccc3ccn(C)c23)C1	-	1.711	0.8674	5.05	3.745
O=c1[nH]c(C2CCOC2)nc2ccc(Br)cc12 (stereo not given)	-0.3734	-2.571	0.4914	-3.496	0
CN1CC(=O)N(C2CCCNC2)Cc2c(NC3CCC3)ncnc21 (stereo not given)	-1.296	1.401	0.2632	-12.64	2.959
COc1c(C(=O)NCc2cccnc2)nnn1Cc1ccc(C)cc1	2.01	4.233	4.98	-8.303	1.639
O=C(C1CCCO1)N1CCc2ncnc(NC3CCC3)c2CC1 (stereo not given)	-1.327	7.403	6.353	5.062	8.173
Cc1nc(CN(C)C2CCN(CCCOc3ccccc3C)C2)no1 (stereo not given)	6.985	-0.0402	-5.094	-17.13	4.274
Cc1ccc(-c2nccn2-c2ccc(OC3CCN(C)CC3)cc2)o1	10.96	-0.5821	6.667	2.532	9.453
CCOCCN1CCN(CC(O)c2ccc(C(F)(F)F)cc2)CC1 (stereo not given)	-3.763	8.163	2.155	-4.989	0.431
Cn1ncc2c(N3CCS(=O)(=O)CC3)nc(-c3cccnc3)nc21	-3.601	5.145	8.705	-0.2071	0.8
CC(C)(O)CN1CCN(C(=O)c2cccc3[nH]ncc23)CC1	-2.143	0.3706	13.68	-15.95	0
CN(C)Cc1ccc(C(N)=O)cc1NC(=O)c1cccc(C#N)c1	0.9082	-2.979	-	-3.622	8.28
O=C1CC(NS(=O)(=O)NCc2ccccc2)CN1c1ccccc1Cl (stereo not given)	2.519	-3.898	11.02	3.966	-1.02
Cc1ccoc1C(=O)N1Cc2c(CN3CCCCC3)nn(C)c2C1	0.4188	9.007	7.006	-4.011	-4
Cc1ccc(C(=O)N2CCc3ccc(=O)n(CCN(C)C)c3CC2)o1	-7.895	-0.1621	0.9877	-19.16	0.9346
CCN(C(=O)CN1CCCC1c1ccc(F)cc1)c1ccccc1C (stereo not given)	-3.21	5.341	3.676	-1.131	16.67
Cc1nc(N2CCCC2)nc2c1CCN(C(=O)NC1CCCC1)CC2	2.766	-1.514	4.511	-5.238	8.537
Cc1cc(C)n(CC(C)CNC(=O)N(C)Cc2cc(C)on2)n1 (stereo not given)	-4.528	5.234	-12.61	9.92	4.813
O=C(C1CCOCC1)N1CCC2(CCN(Cc3nccs3)CC2)CC1	4.966	5.5	2.231	7.158	15.97
O=C(C1CCCC1)N1CCC(c2ccnc(Nc3cnccn3)n2)C1 (stereo not given)	-	3.878	-2.696	4.917	3.191
OCc1cn(Cc2cccc(F)c2)nn1	-5.004	4.523	7.365	2.823	7.292
O=C(c1n[nH]cc1Cl)N1CCSCC1	-0.3285	1.667	2.804	-4.945	-1.327

Some entries from above, unchanged:

{"compound": "O=C(C1CCOCC1)N1CCC2(CCN(Cc3nccs3)CC2)CC1", "A": 4.966, "B": 5.5, "C": 2.231, "D": 7.158, "E": 15.97}
{"compound": "O=C(NCc1ccccc1F)N1CCCCC1C1OCCO1", "stereo": "stereo not given", "A": 1.866, "B": -0.3852, "C": 0.9223, "D": -5.468, "E": 8}
{"compound": "OCCCN1CCc2[nH]nc(C(c3ccccc3)c3ccccc3)c2C1", "A": -0.1638, "B": 3.728, "C": -0.4577, "D": -1.593, "E": 6.077}
{"compound": "CC(=O)N1CCC(=O)N(C2CCCC2)Cc2ccccc21", "B": 1.912, "C": 0.2421, "D": 20.81, "E": -2.247}